Assay results published in the supplement of paper PMC12889115.
The list shows a part of the results. Values are raw readings; no control value is given beside them.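 First-pass screen: polymyxin B was added at a level that permeabilizes the Salmonella outer membrane while sparing the inner membrane. DMSO wells, with and without polymyxin B, defined maximum growth. Because plates differed from one another, each plate's data were ranked separately and the compounds with the lowest OD600 were carried forward as hits.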

System: Salmonella enterica serovar Typhimurium SL1344
Assay: bacterial growth OD600 after 18 h with compound and polymyxin B; higher = more bacterial growth (less inhibition)
Details: 50 µM, Mueller-Hinton broth

Row | SMILES | bacterial growth OD600 (polymyxin B 1 µg/mL) | bacterial growth OD600 (polymyxin B 0.75 µg/mL)
1 | COc1cccc(CC2(CO)CCN(Cc3csc(C(C)=O)c3)CC2)c1 | 0.855 | –
2 | O=C(CCC1CCN(C(=O)CN2CCC(c3ccccc3)CC2)CC1)NC1CC1 | – | 0.832
3 | CCOC(=O)N1CCN(C(=O)c2ccc(N3CCC(NCCc4cnccn4)CC3)cc2)CC1 | – | 0.888
4 | COc1ccccc1CCNc1nc(CN(C)C(C)c2ccon2)nc2ccccc12 (stereo not drawn) | – | 0.822
5 | CN(CCc1ccccc1)C(=O)CC1(c2ccccc2)CC(=O)N(Cc2ccc3c(c2)OCO3)C1=O (stereo not drawn) | – | 0.001
6 | OC(Cc1ccccc1)c1ccc2c(c1)CN(Cc1cccs1)CCO2 (stereo not drawn) | – | 0.683
7 | COc1ccc(F)c(CC2(CCC(=O)N(C)Cc3ccc(C)cc3)CCC(=O)N2)c1 (stereo not drawn) | – | 0.814
8 | COCCN1CC(C(=O)NCCc2nc(C)c3c(n2)CCC3)CCC1=O (stereo not drawn) | 0.905 | –
